The target in one test is HSF1 (UniProt Q00613). The test is described as follows: DAPPL (digital affinity profiling via proximity ligation, sequencing). Particulars: 10 mM Tris-HCl pH 7.5, 50 mM NaCl, 1 mM DTT, 4% glycerol, room temperature, 30 min; GST-TFs on glutathione beads, 16-mer random dsDNA library, 0.1% …; high values mean tight binding; double strand, one strand shown; scale: fold enrichment (6-mer frequency, TF over GST control).

The chains behind the UniProt entries cited, without tags or fusion partners. Where a name states a change or a piece, a line headed by the entry shows the natural chain unless it says otherwise.
UniProt Q00613: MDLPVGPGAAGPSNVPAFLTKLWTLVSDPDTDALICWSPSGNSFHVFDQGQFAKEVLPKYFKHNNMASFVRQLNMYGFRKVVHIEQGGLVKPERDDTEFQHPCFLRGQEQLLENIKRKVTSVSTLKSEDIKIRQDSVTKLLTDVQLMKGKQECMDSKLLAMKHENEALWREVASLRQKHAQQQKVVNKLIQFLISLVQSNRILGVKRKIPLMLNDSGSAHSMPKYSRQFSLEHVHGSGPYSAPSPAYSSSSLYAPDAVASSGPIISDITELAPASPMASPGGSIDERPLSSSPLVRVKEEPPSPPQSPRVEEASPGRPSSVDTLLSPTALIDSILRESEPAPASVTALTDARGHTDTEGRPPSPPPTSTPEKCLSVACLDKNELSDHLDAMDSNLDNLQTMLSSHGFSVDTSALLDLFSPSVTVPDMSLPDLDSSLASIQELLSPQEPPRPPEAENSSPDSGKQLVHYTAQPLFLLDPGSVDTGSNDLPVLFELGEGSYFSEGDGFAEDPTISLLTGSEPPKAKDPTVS

The next test concerns the target T1, ELF2 (UniProt Q15723).
T1 sequence: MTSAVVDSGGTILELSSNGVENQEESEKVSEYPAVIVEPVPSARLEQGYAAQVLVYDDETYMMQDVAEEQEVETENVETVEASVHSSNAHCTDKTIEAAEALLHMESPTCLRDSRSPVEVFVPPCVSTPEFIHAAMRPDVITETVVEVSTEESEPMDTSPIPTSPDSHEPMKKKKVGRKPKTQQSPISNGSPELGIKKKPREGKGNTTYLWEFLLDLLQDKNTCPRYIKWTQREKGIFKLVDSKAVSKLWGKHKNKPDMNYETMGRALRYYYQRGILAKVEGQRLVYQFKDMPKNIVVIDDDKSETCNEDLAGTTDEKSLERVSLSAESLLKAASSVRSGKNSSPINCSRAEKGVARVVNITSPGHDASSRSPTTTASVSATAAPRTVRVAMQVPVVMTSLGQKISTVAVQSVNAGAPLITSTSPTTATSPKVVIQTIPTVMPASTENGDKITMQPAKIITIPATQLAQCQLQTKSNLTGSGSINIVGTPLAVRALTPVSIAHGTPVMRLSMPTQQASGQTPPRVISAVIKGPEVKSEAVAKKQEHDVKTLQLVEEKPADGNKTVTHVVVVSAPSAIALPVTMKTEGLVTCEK
The description is as above. Particulars: 10 mM Tris-HCl pH 7.5, 50 mM NaCl, 1 mM DTT, 4% glycerol, room temperature, 30 min; GST-TFs on glutathione beads, 16-mer random dsDNA library, 0.1% …; high values mean tight binding; double strand, one strand shown; scale: fold enrichment (6-mer frequency, TF over GST control).

The entries are a selection whose mix differs from that of the whole data set. For some assays here: At the low end of the ranking the order means little. This is one part of the list. For some assays here: The source does not settle which construct or isoform was used.

For the sequence TCAAAC, the figures for the binding signal with HSF1 and with ELF2 were 1.03 and 1.13, respectively. The corresponding values for TCTCTC are 1.59 and 1.21. On to TATTGA, for which the binding signal came to 1.14 with HSF1 and 1.11 with ELF2. GGCAAT: the values for the binding signal with HSF1 and with ELF2 were 0.847 and 0.969, respectively. For the sequence ACCCAA, the binding signal with HSF1 amounted to 0.898; with ELF2, 1.06. The matching figures for GAAACG: 0.949 and 1.31. The corresponding values for GACGTT are 0.847 and 0.888. The matching figures for GGCTCG: 0.935 and 0.973. On to AAGTGC, for which the binding signal with HSF1 amounted to 0.973; with ELF2, 1.41.

TTGAAG: the binding signal with HSF1 came out at 0.987; with ELF2, 0.892. In the case of GGCCCT, the binding signal with HSF1 came out at 0.81; with ELF2, 0.952. The corresponding values for ACTGGG are 0.759 and 0.781. Turning to GCCCGG, the binding signal was found to be 0.678 with HSF1 and 1.07 in the test with ELF2. As for GAAACA, the binding signal amounted to 1.22 with HSF1 and 1.45 with ELF2. On to TTCAAT, for which the binding signal amounted to 1.27 in the test with HSF1 and 1.32 with ELF2. In the case of ACTGCA, the binding signal with HSF1 is 0.874; in the test with ELF2, 1.1. TCGCTG: the binding signal with HSF1 is 0.933; with ELF2, 1.05.

TATTAC: the binding signal with HSF1 is 1.33; with ELF2 it was 1.22. For TGCTAG, the binding signal in the test with HSF1 came to 1.94; with ELF2, 1.01.

Regarding ACGAAT, the binding signal with HSF1 stood at 1.39; with ELF2, 1.14. The matching figures for ACTCCG: 1.16 and 1.42.

As for AGGCTT, the binding signal in the test with HSF1 turned out to be 1.24; with ELF2, 0.99. The corresponding values for CAATCT are 1.48 and 1.18. Regarding AGTTAC, the results for the binding signal in the test with HSF1 and in the test with ELF2 were 0.731 and 0.971, respectively. On to CTGACC, for which the binding signal with HSF1 amounted to 0.972; in the test with ELF2, 1.33. The matching figures for GGACTC: 0.885 and 0.984. The matching figures for CAGTAT: 0.927 and 0.921. The corresponding values for GGCTGC are 0.739 and 0.943. As to CTAGTG, the binding signal with HSF1 was found to be 0.969; in the test with ELF2, 0.846. On to CATTCT, for which the binding signal with HSF1 came to 2.56; in the test with ELF2, 1.28.

As for CAATGA, the binding signal in the test with HSF1 was determined as 0.873; with ELF2 it was 0.943. For the sequence ACTCTG, the figures for the binding signal with HSF1 and in the test with ELF2 were 1.12 and 1.21, respectively.

Consider TTGCAA, for which the values for the binding signal with HSF1 and with ELF2 were 1.07 and 1.14, respectively.

For the sequence TTCTTA, the binding signal was found to be 1.85 in the test with HSF1 and 1.36 with ELF2.

Consider TGAATA, for which the binding signal worked out at 1.24 with HSF1 and 1.11 with ELF2.

For TGAAGA, the results for the binding signal with HSF1 and with ELF2 were 1.09 and 0.929, respectively.

Turning to CTGCAG, the binding signal in the test with HSF1 was 0.983; with ELF2 it was 1.07. The matching figures for ACGCCT: 1.15 and 1.13. AGTCCC: the values for the binding signal with HSF1 and with ELF2 were 0.878 and 1.03, respectively. With GTCACG, the binding signal is 0.819 with HSF1 and 0.986 in the test with ELF2. Regarding CTACGT, the values for the binding signal in the test with HSF1 and with ELF2 were 0.982 and 1.19, respectively.

For CTAGGG, the binding signal was determined as 0.949 with HSF1 and 0.809 in the test with ELF2. Take AGCCCA: the binding signal with HSF1 was determined as 0.929; with ELF2 it was 0.948. The corresponding values for TAGATC are 1.49 and 1.01. Turning to GTTAGC, the binding signal came to 0.824 with HSF1 and 0.958 in the test with ELF2.

Turning to CAACCT, the binding signal with HSF1 stood at 0.952; with ELF2, 1.06. The matching figures for ATAGAC: 0.983 and 0.927. For the sequence CACGTA, the binding signal in the test with HSF1 is 1.05; with ELF2, 1.1. The matching figures for TGTCAG: 0.765 and 0.865. Turning to AACGAT, the binding signal with HSF1 came out at 1.32; in the test with ELF2, 1.19. The matching figures for CGTCGC: 0.914 and 1.13.

For TGATGT, the results for the binding signal with HSF1 and in the test with ELF2 were 0.987 and 1.15, respectively. For TTAATA, the binding signal in the test with HSF1 stood at 2.09; in the test with ELF2, 1.19. As for CCGGTT, the figures for the binding signal with HSF1 and in the test with ELF2 were 0.922 and 2.5, respectively.

As to CCACCA, the binding signal in the test with HSF1 is 0.876; with ELF2, 0.951. The matching figures for GCTGGT: 1.06 and 1.11.

Regarding TGAAAT, the binding signal came to 1.02 in the test with HSF1 and 0.991 in the test with ELF2. The corresponding values for CATGCC are 0.897 and 1.08. The matching figures for GCGTCA: 0.746 and 0.924.

Take CGCTGC: the binding signal with HSF1 worked out at 0.89; in the test with ELF2, 1.13.

As to TAAGCC, the binding signal with HSF1 came to 2.07; in the test with ELF2, 1.1. Turning to CCTTAA, the binding signal was found to be 1.62 with HSF1 and 1.3 in the test with ELF2. The corresponding values for TACAAT are 1.32 and 1.31.

For the sequence GTTTGC, the binding signal is 0.856 with HSF1 and 1.04 in the test with ELF2. The corresponding values for ATTCTT are 1.99 and 1.45.

In the case of GTTGAC, the binding signal worked out at 0.843 with HSF1 and 1.15 with ELF2.

With GTCCCC, the binding signal with HSF1 stood at 0.889; in the test with ELF2, 1.09. The matching figures for AATTTT: 1.51 and 1.29. The corresponding values for TGTGCA are 0.858 and 1.08.

In the case of GTAGCA, the binding signal with HSF1 is 0.866; with ELF2, 1.1. The corresponding values for AGTGGC are 0.964 and 1.23. The matching figures for ACGGTT: 0.877 and 0.987. The corresponding values for CACTGT are 0.883 and 1.05. For the sequence CGACGG, the figures for the binding signal in the test with HSF1 and in the test with ELF2 were 0.853 and 0.96, respectively. The matching figures for GAAGAA: 1.46 and 1.32. Turning to AGCGGC, the binding signal with HSF1 was 0.798; with ELF2, 0.949.

With CTTCCA, the binding signal in the test with HSF1 turned out to be 2.18; with ELF2, 1.49.

Regarding GTTCTC, the binding signal with HSF1 worked out at 2.29; with ELF2, 1.25. The matching figures for ACGATA: 1.17 and 1.16. The corresponding values for TCATCC are 1.38 and 1.37.

As for CGTTGG, the binding signal with HSF1 is 0.797; with ELF2, 0.884. The matching figures for CACGTT: 1.11 and 1.24. The corresponding values for GACTAT are 0.958 and 0.916.

As for AGATTT, the binding signal with HSF1 was found to be 1.75; in the test with ELF2, 1.2. Consider AATTTC, for which the binding signal amounted to 1.89 with HSF1 and 2.01 with ELF2. The matching figures for AAGGGA: 0.899 and 0.9. The matching figures for GCCACT: 0.924 and 1.21. The matching figures for TGGATC: 1.16 and 0.925. On to TACCGG, for which the values for the binding signal with HSF1 and in the test with ELF2 were 0.97 and 2.16, respectively. The matching figures for AGTTTG: 0.798 and 0.932. With TGTATA, the binding signal worked out at 1 with HSF1 and 1.09 with ELF2. On to GCCATC, for which the binding signal stood at 0.728 with HSF1 and 0.877 in the test with ELF2. For TTGCTT, the figures for the binding signal in the test with HSF1 and with ELF2 were 1.1 and 1.35, respectively. The matching figures for TATCGC: 1.22 and 1.11. The corresponding values for TTTGTA are 1.65 and 1.49. For AAGGTT, the binding signal was determined as 1.27 in the test with HSF1 and 1.02 with ELF2. In the case of ATTAGG, the binding signal was 1.57 in the test with HSF1 and 1.06 with ELF2. With ACCCGA, the results for the binding signal in the test with HSF1 and with ELF2 were 1.21 and 1, respectively. The matching figures for CCCTGA: 0.951 and 0.993.

As for TCAGCC, the binding signal with HSF1 stood at 0.973; with ELF2, 0.967. For the sequence CCGACT, the binding signal is 1.29 in the test with HSF1 and 1.44 with ELF2.

Consider GCCGCT, for which the binding signal with HSF1 came to 0.926; with ELF2, 1.04. The corresponding values for CACCGG are 0.642 and 1.26.

Turning to AACGGC, the values for the binding signal in the test with HSF1 and with ELF2 were 0.95 and 1.13, respectively. The matching figures for CTTCGA: 2.52 and 1.33. Turning to AAGTGT, the values for the binding signal in the test with HSF1 and with ELF2 were 0.996 and 1.37, respectively. Consider GTACCC, for which the figures for the binding signal in the test with HSF1 and in the test with ELF2 were 0.84 and 1.12, respectively. The matching figures for AGGGAA: 0.898 and 1. The corresponding values for TGCCGA are 1.07 and 1.1. The matching figures for TGCGTC: 0.71 and 0.957.

On to CAAACC, for which the binding signal is 0.886 with HSF1 and 1.13 with ELF2. Regarding CCCTCA, the binding signal amounted to 1.03 with HSF1 and 1.09 with ELF2. The matching figures for GGTTAC: 0.751 and 0.938. For the sequence ATAATA, the binding signal with HSF1 is 1.67; in the test with ELF2 it was 1.22. With GCGCCT, the binding signal with HSF1 was determined as 0.985; in the test with ELF2, 0.993.

Turning to TGTTGA, the binding signal turned out to be 0.878 in the test with HSF1 and 0.988 in the test with ELF2. In the test with ELF2, TGTTTA yielded a binding signal of 1.12. With GAATAG, in the test with ELF2, the binding signal stood at 0.944.

Regarding ATAATC, the binding signal with ELF2 was determined as 1.07. As to TTCGGC, the binding signal with ELF2 turned out to be 1.02.
